From PubChem BioAssay AID1794845 (National Center for Advancing Translational Sciences (NCATS), 2023)
The whole screen tested about 6,900 compounds, of which fewer than 10 were called active. Calls follow the shape of the dose curve; as a rule, active = well fitted curve in the direction sought with a large enough effect; inconclusive = small, poorly fitted or top-dose-only effect, or another doubt; inactive = no such curve, though single readings can be large or run the other way. The list shows a part of the results.

Amino acid sequences for entries named in this document (tags omitted). A change or cut given only in a name is not applied to a line headed by its entry.
UniProt C7C422: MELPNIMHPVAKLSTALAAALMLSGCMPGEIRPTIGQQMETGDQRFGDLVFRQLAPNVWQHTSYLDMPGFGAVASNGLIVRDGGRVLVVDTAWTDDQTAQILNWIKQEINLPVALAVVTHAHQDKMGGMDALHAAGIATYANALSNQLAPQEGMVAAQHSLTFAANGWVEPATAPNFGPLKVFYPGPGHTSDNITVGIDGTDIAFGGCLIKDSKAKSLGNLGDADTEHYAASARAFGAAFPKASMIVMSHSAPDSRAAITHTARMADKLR

Target: Metallo-beta-lactamase type 2 (Klebsiella pneumoniae) (UniProt C7C422)
Test: qHTS to identify inhibitors of the New Delhi Metallo-beta-lactamase (NDM): primary screen against the NCATS Gemini Collection; also: % of control where 0% means no effect
Conditions: NDM-1 enzyme, meropenem hydrolysis, absorbance 300 nm; at 38.4 µM (top of the series) unless noted
In short: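 NDM-1 at 2 nM final in 50 mM HEPES pH 7.0, 1 uM ZnSO4, 0.01% Tween20, preincubated >30 min with compound. Meropenem 50 uM final added; absorbance at 300 nm after 30 min.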

Activity % (negative = inhibition), inactive:
Fc1cccc(CN2CCO[C@@H](COc3ccccn3)[C@@H]2c2ccccc2)c1 1.31%
CCOC(=O)N1CCN(C(C(=O)O)c2ccc(OC)nc2OC)CC1 (centres undefined) 71.5%
O=[S+]1([O-])NC2(CCN(Cc3ccc(F)cc3)CC2)CNc2ccccc21 4.06%
CS(=O)(=O)NCCc1ccc(CC2CCN(C(=O)c3cnccn3)CC2)cc1 5.8%
O=C1Nc2ccccc2CC12CCN2Cc1ccc(OC(F)(F)F)cc1 (centres undefined) 0.918%
O=C(O)c1ccc(CN2CCC[C@H]2c2nc(-c3ccc(OC4CCCCC4)nc3)no2)cc1 -3.98%
Cc1ccc2c(n1)N(C)[C@H](CO)CCN(Cc1cccc(Cl)c1)C2 -8.47% [at 57.5 µM]
Cc1noc(CN2C[C@H](NC(=O)CNS(C)(=O)=O)[C@@H](C3CC3)C2)n1 2.74%
Cn1cc(CN2C[C@H](C(=O)Nc3nccs3)C[C@@H]2c2cccc(C(F)(F)F)c2)cn1 4.37% [at 57.5 µM]
COc1ccc(CNC(=O)C2=NO[C@@H]3CN(c4ccccn4)C[C@H]23)cc1OC 6.16% [at 57.5 µM]
CN1CC(O)CN([S+](=O)([O-])c2cccs2)CC1=O (centres undefined) -1.72%
c1ccc(CN2CCc3c(sc4ncnc(N5CCOCC5)c34)C2)cc1 3.98%
Cn1ccnc1-c1cn(Cc2ccccc2Cn2cccn2)nn1 0.586%
COc1ncccc1Nc1cnc2ccc(N3CCOCC3)nn12 11.8% [at 57.5 µM]
OC[C@@H]1CN(Cc2ccco2)C[C@H]1c1ccccn1 3.82%
O=C(NC1CCCC1)C1c2ccccc2CC(=O)N1Cc1ccccc1 (centres undefined) 3.08%
COc1ccccc1CNC(=O)C1CN(C(C)C)C(=O)N1 (centres undefined) -5.03% [at 57.5 µM]
COc1ccc(C2(C(=O)N3CCCCCC3c3nc(-c4cccnc4)no3)CC2)cc1 (centres undefined) -1.26%
COc1ccccc1-c1cccc(C(=O)N2CCN(C(=O)c3ccc(F)cc3)CC2)c1 0.844%
CC(C)NC(=O)C1CCc2nnc(C(C)(C)C)n21 (centres undefined) -0.813% [at 57.5 µM]
Cc1nc(C(=O)N2CC(F)(F)C[C@H]2c2nnc(C3CC3)o2)co1 52.8%
CN1CC2(CCN(Cc3ccc(C#N)cc3)CC2)CC(c2ccccc2)C1=O (centres undefined) 21.5%
CCn1nc(-c2cccc(-c3ccnn3C)c2)nc1N(C)C -0.0094%
Cc1nc(C)c(C(=O)N2CCCCCCNC(=O)CC2)s1 15.3%
CC(C)S(=O)(=O)c1ncc(CN(C)Cc2cnn(C)c2)n1CCc1ccccc1 -4.1%
O=C(CC1CCCC1)N1CCC(c2noc(-c3cnccn3)n2)C1 (centres undefined) -2.76%
CN(Cc1ccc(N2CCNC2=O)cc1)CC1CCCN(CCc2ccc(F)cc2)C1 (centres undefined) 3.74%
CNC(=O)c1cc(C2CC2)nc2c1c(C1CCN(C(=O)C3CCCC3)C1)nn2C (centres undefined) 20.8%
O=C(CCc1nnn2c1CN(C(=O)NCCc1ccccc1)CC2)NC1CC1 8.39%
CN1c2cc(C(N)=O)ccc2C(=O)N2CCCC21 (centres undefined) -0.849%
C[C@@H]1CN(C(=O)c2cnc3sccn3c2=O)C[C@@]1(O)C1CCC1 -0.99%
CN1CCCCCCN(C(=O)Cn2c(=O)oc3ccccc32)[C@H]2CCC[C@H]2C1=O 6.66%
CCC[C@H]1CN(Cc2c(C)noc2C)C[C@@H]1NC(=O)C1CCOCC1 -1.77%
COC(=O)CNC(=O)c1nc(-c2ccccc2OC)c2cnccn12 24.9%
Cc1ccc(CN2CCC3(CC2)CC(c2ccccc2)C(=O)N3C)cc1F (centres undefined) 11.9%
N#Cc1ccc(CN2CCCC3(CC(c4cccnc4)=NO3)C2)cc1 (centres undefined) 10.9%
Cc1nn(C)cc1CN1CCC(O)(c2ccccc2)[C@H](N2CCCC2)C1 (some centres undefined) 0.544%
CCN1C(=O)Cc2cc(C(=O)NCCC(C)C)ccc21 27.3%
CC(C)CCNC(=O)N1CC[C@@H]2COC(=O)N(Cc3ccccc3)[C@@H]2C1 6.1%
CNC(=O)c1cc(C2CC2)nc2onc(C3CCCN3C(C)=O)c12 (centres undefined) 24.9% [at 57.5 µM]
Cc1nc(N2CCC(NC(=O)COc3ccccc3)CC2)cc(C(F)(F)F)n1 13.9%
Cc1oc2c(c1C(=O)N1CCOCC1)CN(C(=O)c1ccncc1)CC2 54.7%
COc1cccc(C(=O)N2CCC(Oc3ccccc3-c3nc(C4CCOCC4)no3)C2)c1 (centres undefined) 2.84%
NCC(=O)N[C@H]1CN(c2nccc(C(F)(F)F)n2)C[C@@H]1C1CC1 -0.191%
CCCc1nc(CN(CC)C(=O)c2ccc(NC(=O)C3CCC3)cc2)no1 11.1%
Cc1cnn(C(C)c2nc(-c3ccc(C)nn3)no2)c1 (centres undefined) -1.03%
COc1ccc2c(c1)C(C(=O)Nc1ccc(C)c([S+](=O)([O-])N3CCOCC3)c1)=CC(C)(C)CO2 1.94%
CC1=C[C@@H](CN(CC2CC2)CC2CC2)[C@H](C(C)C)C[C@H]1Cc1nc2ccncc2[nH]1 22.3% [at 57.5 µM]
CC(=O)N1CCN(CC[C@H]2CN(C(=O)c3ccc(N(C)C)cc3)CC[C@H]2CC(=O)O)CC1 16.2%
COc1ccc(C(=O)N2CCC(c3noc(-c4ccncc4)n3)C2)cn1 (centres undefined) 6.51%
CC(=O)N1CCC(C(=O)N[C@H]2CCN3C(=O)N(c4ccc(OC(F)(F)F)cc4)C(=O)[C@@H]3C2)CC1 -9.06%
CC(=O)N1CCCC(c2nn(-c3cccc(Cl)c3)c(=O)[nH]2)C1 (centres undefined) 14.7% [at 57.5 µM]
CC(C)OCCCNC(=O)C1CCCN(S(=O)(=O)c2cn(C)cn2)CCC(=O)NCC1 (centres undefined) -8.72%
Cc1n[nH]c(C)c1CNC(=O)C12CCCC=C1N(Cc1ccccc1)C(=O)CC2 (centres undefined) 5.12%

As a working copy, part of the list above.
Activity % (negative = inhibition), inactive:
Cc1cnn(C(C)c2nc(-c3ccc(C)nn3)no2)c1 (centres undefined) -1.03%
COc1ccc2c(c1)C(C(=O)Nc1ccc(C)c([S+](=O)([O-])N3CCOCC3)c1)=CC(C)(C)CO2 1.94%
CC1=C[C@@H](CN(CC2CC2)CC2CC2)[C@H](C(C)C)C[C@H]1Cc1nc2ccncc2[nH]1 22.3% [at 57.5 µM]
CC(=O)N1CCN(CC[C@H]2CN(C(=O)c3ccc(N(C)C)cc3)CC[C@H]2CC(=O)O)CC1 16.2%
